From patent US6369109B1, “Betulinic acid and derivatives thereof useful for the treatment of neuroectodermal tumor” (Deutsches Krebsforschungszentrum Stiftung des Offentlichen …, priority 1998, dated 2002)
At least one compound was matched to its structure with a doubt left.

Tests used:
[1] = system: SH-EP neuroblastoma cells; assay: Mitochondrial potential (DiOC6(3)), ROS (HE) and lipid peroxidation (NAO) by flow cytometry; assay type: cell-based, human
Experimental: The cationic lipophilic fluorochrome DiOC6(3)(460 ng/ml, Molecular Probes, Eugene, Oreg.) was used to measure the Δ¥m. HE(126 ng/ml. Molecular probes) was used to determine ROS generation, and NAO (94 ng/ml, Molecular Probes) was used to determine lipid peroxidation. Kroemer et al, 1997, Immunol. Today. 18:44-51. Cells were incubated for 12 min at 37° C. in the presence of the fluorochromes, washed in PBS/1% FCS, and immediately analyzed by flow cytometry (FACScan, Becton Dickinson). DiOC6(3) and NAO fluorescence were recorded in fluorescence 1; He fluorescence was assessed in fluorescence 3. The percentage of cells with low mitochondrial potential or enhanced ROS production was calculated in comparison to untreated control cells.
SH-EP neuroblastoma cells were treated with 10 μg/ml betulinic acid for the indicated times. Cells were stained with the fluorochrome DiOC6(3) to determine ΔΨm and with HE to determine ROS generation and analyzed by flow cytometry. Fold increase in cells with low ΔΨm [DiOC6(3)^low] or with enhanced ROS production (HE+) is shown.
SH-EP neuroblastoma cells treated with 10 μg/ml […] for 24 h (heavy line) or control cells (thin line) were strained with NAO to assess oxidized cardiolipin and analyzed by flow cytomety.
For determination of mitochondrial membrane potential, cells (5×10^5/ml) were incubated with 3,3′-dihexyloxacarbocyanide iodide (DiOC6(3), 40 nM, Molecular Probes, Inc., Eugene, Oreg.) for 15 min at 37° C. and analyzed on a flow cytometer (FACScan) (Zamzarni et al., 1996 J. Exp. Med. 183:1533-44). For cell sorting, cells were stained with DiOC6(3) and sorted into DiOC6(3)^high and DiOC6(3)^low cells on a cytofluorometer (FACS Vantage, Becton Dickinson). As a control, cells were treated with the uncoupling agent carbonyl cyanide m-chlorophenylhydrazone (mCICCP, 200 μM, Sigma).
SHEP cells transfected with Bcl-2 or BCl-XL or a neomycin resistance vector only (Neo) were treated with 0.5 μg/ml Doxorubicin or 10 μg/ml Betulinic acid for 48 h (A) or 24 h (B and C). Cells transfected with a neomycin resistance vector only (Neo) were treated in the presence or absence of 50 μm BA or 60 μm zVAD-fmk. Nuclear apoptosis was determined by FACS analysis or propidium iodide-stained DNA content in intact cells (A) or in a CFS incubating isolated nuclei with mitochondria from cells treated with Doxo or betulinic acid (C). ΔΨm was determined by staining cells with the potential-sensitive fluorochrome DiOC6(3) (B).

[2] = system: CD95-L mRNA in SH-EP neuroblastoma cells; assay: CD95-L mRNA expression by RT-PCR; assay type: cell-based, human; conditions: 5 and 10 μg/ml betulinic acid; 0.5 μg/ml doxorubicin 24 h; FIG. 3A
Experimental: Total RNA was prepared using the Qiagen total RNA kit (Qiagen, Hilden, Germany). RNA was converted to cDNA by reverse transcription and amplified for 38 cycles by PCR in a thermocycler (Stratagene, Heidelberg, Germany) using the Gene Amplification RNA-PCR kit (Perkin-Elmer, Branchburg, N.J.) following the manufacturer's instructions. Primers used for amplification of the CD95-L fragment are according to the sequence of human CD95-L (Suda et al., 1995, Cell 75:1169-1178; Herr et al., 1996, Cell Death Diff., 5:299-305). Expression of β-actin (MWG-Biotech, Ebersberg, Germany) was used as an internal standard for RNA integrity and equal gel loading. PCR products were run at 60 V for 2 h on a 1.5% agarose gel stained with ethidium bromide and visualized by UV illumination.
SH-EP neuroblastoma cells were incubated with 5 and 10 μg/ml betulinic acid for the indicated times or with 0.5 μg/ml doxorubicin for 24 h. CD95-L mRNA expression was determined by RT-PCR. Expression of μ-actin was used to control RNA integrity and equal gel loading.

C=C(C)[C@@H]1CC[C@]2(C(=O)O)CC[C@]3(C)[C@H](CC[C@@H]4[C@@]5(C)CC[C@H](O)C(C)(C)[C@@H]5CC[C@]43C)[C@@H]12 [betulinic acid, 3β-3-hydroxylup-20(29)-en-28-oic acid]
loss of ΔΨm in intact SHEP cells ([1]; 0.5 μg/ml doxorubicin or 10 μg/ml betulinic acid, 24 h, FIG. 12B): induced loss of ΔΨm and nuclear fragmentation | intact cardiolipin / lipid peroxidation (NAO staining) ([1]; 10 μg/ml, 24 h, FIG. 4B): reduced staining with NAO | ROS generation (HE) ([1]; 10 μg/ml, FIG. 4A): hyperproduction of ROS | mitochondrial membrane potential ΔΨm (DiOC6(3)) ([1]; 10 μg/ml, FIG. 4A): caused a disruption of the ΔΨm | CD95-L mRNA induction [2]: did not induce CD95-L mRNA
